No constants are given. Whether binding was seen depends on the method and setting. In cells and extracts the contact can be indirect. Some results given as binding are weak or reduced against the parent protein; the word gives no strength. For part of these data: Where a sequence is shown, tags or fusion partners need not be part of it.
T1: Flag-tagged hnRNPQ1 (human (cDNA from OL cells)) (UniProt O60506)
T1 sequence: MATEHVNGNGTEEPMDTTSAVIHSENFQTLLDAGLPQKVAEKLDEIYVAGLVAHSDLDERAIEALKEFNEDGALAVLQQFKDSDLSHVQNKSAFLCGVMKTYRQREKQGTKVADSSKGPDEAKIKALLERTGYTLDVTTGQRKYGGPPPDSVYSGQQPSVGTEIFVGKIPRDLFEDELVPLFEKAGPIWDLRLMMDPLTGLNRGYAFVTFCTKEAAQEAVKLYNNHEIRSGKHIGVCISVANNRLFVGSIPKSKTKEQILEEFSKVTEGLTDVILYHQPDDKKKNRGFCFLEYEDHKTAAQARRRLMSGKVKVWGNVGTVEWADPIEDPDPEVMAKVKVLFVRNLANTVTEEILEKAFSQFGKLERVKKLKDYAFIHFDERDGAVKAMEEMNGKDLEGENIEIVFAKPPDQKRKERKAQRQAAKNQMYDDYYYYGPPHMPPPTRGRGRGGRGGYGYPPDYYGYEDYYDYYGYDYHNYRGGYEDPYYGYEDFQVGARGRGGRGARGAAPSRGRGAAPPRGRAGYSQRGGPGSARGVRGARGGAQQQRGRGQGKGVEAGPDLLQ

The chains behind the UniProt entries cited, without tags or fusion partners.
UniProt P11387: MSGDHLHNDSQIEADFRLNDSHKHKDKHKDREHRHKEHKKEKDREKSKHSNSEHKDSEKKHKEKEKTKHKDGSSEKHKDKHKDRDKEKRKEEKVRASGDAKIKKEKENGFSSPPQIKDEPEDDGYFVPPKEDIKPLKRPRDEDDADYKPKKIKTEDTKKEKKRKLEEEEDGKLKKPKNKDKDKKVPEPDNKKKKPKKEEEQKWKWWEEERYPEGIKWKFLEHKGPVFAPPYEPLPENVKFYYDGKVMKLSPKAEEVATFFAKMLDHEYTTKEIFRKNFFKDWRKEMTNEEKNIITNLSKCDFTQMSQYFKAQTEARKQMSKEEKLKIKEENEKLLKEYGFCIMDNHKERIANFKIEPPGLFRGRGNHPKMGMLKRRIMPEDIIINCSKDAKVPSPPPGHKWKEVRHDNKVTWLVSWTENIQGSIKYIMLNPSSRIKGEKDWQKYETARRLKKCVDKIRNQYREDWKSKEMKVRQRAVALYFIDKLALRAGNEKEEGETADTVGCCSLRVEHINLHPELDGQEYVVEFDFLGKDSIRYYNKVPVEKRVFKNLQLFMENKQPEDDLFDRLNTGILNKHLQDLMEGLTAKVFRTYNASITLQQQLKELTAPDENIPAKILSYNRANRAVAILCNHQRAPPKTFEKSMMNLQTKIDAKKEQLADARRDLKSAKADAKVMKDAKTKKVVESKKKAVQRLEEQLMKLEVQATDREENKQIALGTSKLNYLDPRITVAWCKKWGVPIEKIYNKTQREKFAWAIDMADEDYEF
UniProt P19338: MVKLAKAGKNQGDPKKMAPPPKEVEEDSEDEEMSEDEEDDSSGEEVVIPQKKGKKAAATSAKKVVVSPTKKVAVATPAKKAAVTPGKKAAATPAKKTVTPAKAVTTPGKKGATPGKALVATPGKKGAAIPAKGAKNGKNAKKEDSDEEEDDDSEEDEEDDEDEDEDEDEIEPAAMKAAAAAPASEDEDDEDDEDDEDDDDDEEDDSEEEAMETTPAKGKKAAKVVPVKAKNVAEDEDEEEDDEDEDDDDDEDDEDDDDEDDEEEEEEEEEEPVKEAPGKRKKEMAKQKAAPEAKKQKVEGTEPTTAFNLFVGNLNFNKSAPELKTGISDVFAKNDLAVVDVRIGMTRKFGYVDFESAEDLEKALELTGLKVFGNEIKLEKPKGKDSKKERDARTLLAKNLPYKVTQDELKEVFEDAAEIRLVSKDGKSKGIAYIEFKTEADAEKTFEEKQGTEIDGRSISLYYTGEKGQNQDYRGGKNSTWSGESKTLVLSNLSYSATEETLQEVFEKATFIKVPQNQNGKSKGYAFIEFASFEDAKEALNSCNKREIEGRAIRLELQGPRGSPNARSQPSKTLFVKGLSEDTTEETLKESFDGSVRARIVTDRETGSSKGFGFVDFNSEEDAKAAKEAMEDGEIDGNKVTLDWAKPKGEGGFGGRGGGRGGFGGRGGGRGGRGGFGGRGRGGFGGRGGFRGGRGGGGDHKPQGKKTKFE


Legend:
[1] = target: Flag-tagged DNA topoisomerase 1 (TOP1) (human (cDNA from OL cells)) (UniProt P11387); experiment: co-IP; OL cells transfected with Flag-tagged UBP plasmids (10 ug); lysed in RIPA buffer; anti-Flag M2 agarose overnight at 4 C, eluted with 3xFlag peptide; blot for endogenous DDX21 or nucleolin
[2] = target: Flag-tagged nucleolin (human (cDNA from OL cells)) (UniProt P19338); experiment: as above
[3] = target: T1, Flag-tagged hnRNPQ1 (human (cDNA from OL cells)); experiment: co-IP; OL cells co-transfected with Flag-tagged and HA-tagged UBP plasmids (5 ug each), 36 h; lysates immunoprecipitated with anti-FLAG antibody; blot with anti-HA

Binder	binding [1]	binding [2]	binding [3]
endogenous DDX21 (protein, UniProt Q9NR30 1-783) MPGKLRSDAGLESDTAMKKGETLRKQTEEKEKKEKPKSDKTEEIAEEEETVFPKAKQVKKKAEPSEVDMNSPKSKKAKKKEEPSQNDISPKTKSLRKKKEPIEKKVVSSKTKKVTKNEEPSEEEIDAPKPKKMKKEKEMNGETREKSPKLKNGFPHPEPDCNPSEAASEESNSEIEQEIPVEQKEGAFSNFPISEETIKLLKGRGVTFLFPIQAKTFHHVYSGKDLIAQARTGTGKTFSFAIPLIEKLHGELQDRKRGRAPQVLVLAPTRELANQVSKDFSDITKKLSVACFYGGTPYGGQFERMRNGIDILVGTPGRIKDHIQNGKLDLTKLKHVVLDEVDQMLDMGFADQVEEILSVAYKKDSEDNPQTLLFSATCPHWVFNVAKKYMKSTYEQVDLIGKKTQKTAITVEHLAIKCHWTQRAAVIGDVIRVYSGHQGRTIIFCETKKEAQELSQNSAIKQDAQSLHGDIPQKQREITLKGFRNGSFGVLVATNVAARGLDIPEVDLVIQSSPPKDVESYIHRSGRTGRAGRTGVCICFYQHKEEYQLVQVEQKAGIKFKRIGVPSATEIIKASSKDAIRLLDSVPPTAISHFKQSAEKLIEEKGAVEALAAALAHISGATSVDQRSLINSNVGFVTMILQCSIEMPNISYAWKELKEQLGEEIDSKVKGMVFLKGKLGVCFDVPTASVTEIQEKWHDSRRWQLSVATEQPELEGPREGYGGFRGQREGSRGFRGQRDGNRRFRGQREGSRGPRGQRSGGGNKSNRSQNKGQKRSFSKAFGQ	binds	binds	–
HA-tagged DDX21 (protein, UniProt Q9NR30 1-783) MPGKLRSDAGLESDTAMKKGETLRKQTEEKEKKEKPKSDKTEEIAEEEETVFPKAKQVKKKAEPSEVDMNSPKSKKAKKKEEPSQNDISPKTKSLRKKKEPIEKKVVSSKTKKVTKNEEPSEEEIDAPKPKKMKKEKEMNGETREKSPKLKNGFPHPEPDCNPSEAASEESNSEIEQEIPVEQKEGAFSNFPISEETIKLLKGRGVTFLFPIQAKTFHHVYSGKDLIAQARTGTGKTFSFAIPLIEKLHGELQDRKRGRAPQVLVLAPTRELANQVSKDFSDITKKLSVACFYGGTPYGGQFERMRNGIDILVGTPGRIKDHIQNGKLDLTKLKHVVLDEVDQMLDMGFADQVEEILSVAYKKDSEDNPQTLLFSATCPHWVFNVAKKYMKSTYEQVDLIGKKTQKTAITVEHLAIKCHWTQRAAVIGDVIRVYSGHQGRTIIFCETKKEAQELSQNSAIKQDAQSLHGDIPQKQREITLKGFRNGSFGVLVATNVAARGLDIPEVDLVIQSSPPKDVESYIHRSGRTGRAGRTGVCICFYQHKEEYQLVQVEQKAGIKFKRIGVPSATEIIKASSKDAIRLLDSVPPTAISHFKQSAEKLIEEKGAVEALAAALAHISGATSVDQRSLINSNVGFVTMILQCSIEMPNISYAWKELKEQLGEEIDSKVKGMVFLKGKLGVCFDVPTASVTEIQEKWHDSRRWQLSVATEQPELEGPREGYGGFRGQREGSRGFRGQRDGNRRFRGQREGSRGPRGQRSGGGNKSNRSQNKGQKRSFSKAFGQ	–	–	binds

From paper PMC2766071
